# Results as given in patent US10662195B2, “Protein kinase conjugates and inhibitors” (Celgene Avilomics Research, Inc., priority 2009, dated 2020).
# The chains behind the UniProt entries cited, without tags or fusion partners. Residues count along the entry.
# UniProt P10721, 26-976: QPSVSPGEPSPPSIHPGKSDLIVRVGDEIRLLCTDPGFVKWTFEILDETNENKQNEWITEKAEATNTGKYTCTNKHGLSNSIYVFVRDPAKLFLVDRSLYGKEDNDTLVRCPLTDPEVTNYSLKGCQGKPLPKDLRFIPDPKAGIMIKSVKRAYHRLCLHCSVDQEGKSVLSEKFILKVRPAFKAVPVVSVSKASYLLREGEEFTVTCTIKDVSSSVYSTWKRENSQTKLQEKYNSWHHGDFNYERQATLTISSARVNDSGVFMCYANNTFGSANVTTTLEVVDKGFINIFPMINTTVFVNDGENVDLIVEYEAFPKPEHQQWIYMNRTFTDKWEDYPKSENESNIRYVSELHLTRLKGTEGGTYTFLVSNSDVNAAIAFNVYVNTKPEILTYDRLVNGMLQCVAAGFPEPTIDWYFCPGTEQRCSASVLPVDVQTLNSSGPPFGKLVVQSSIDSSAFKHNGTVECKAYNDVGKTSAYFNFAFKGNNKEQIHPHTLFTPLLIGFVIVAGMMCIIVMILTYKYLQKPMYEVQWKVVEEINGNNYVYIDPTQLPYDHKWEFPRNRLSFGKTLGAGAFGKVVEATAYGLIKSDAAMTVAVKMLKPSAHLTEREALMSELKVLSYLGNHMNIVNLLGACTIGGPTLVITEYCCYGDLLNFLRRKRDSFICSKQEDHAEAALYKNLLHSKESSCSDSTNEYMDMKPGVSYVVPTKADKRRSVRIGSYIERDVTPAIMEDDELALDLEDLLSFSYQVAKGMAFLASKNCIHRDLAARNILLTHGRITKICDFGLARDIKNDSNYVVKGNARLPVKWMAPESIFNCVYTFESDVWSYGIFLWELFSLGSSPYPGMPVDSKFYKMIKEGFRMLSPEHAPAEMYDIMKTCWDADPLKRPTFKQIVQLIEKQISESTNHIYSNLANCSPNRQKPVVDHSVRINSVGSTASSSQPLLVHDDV
# For at least one compound, name, drawing or mass did not settle the structure.
# How the values were obtained:
# CKIT [1] = target: CKIT (Homo sapiens, UniProt P10721); experiment: c-Kit Omnia kinase assay; format: biochemical; details: read-out: IC50_APP CKIT
# CKIT [2] = experiment: cKIT washout assay in GIST882 cells (C-kit phosphorylation, western blot); format: cell-based; details: GIST882 cell line, 1 micromolar, 90 minutes
# Protocol: GIST882 cells (See, Bauer et al., Cancer Research, 66(18):9153-9161 (2006)) were seeded in a 6 well plate at a density of 8×10^5 cells/well in complete media. The next day cells were treated with 1 uM compound diluted in complete media for 90 minutes. After 90 minutes, the media was removed and cells were washed with compound-free media. Cells were washed every 2 hours and resuspended in fresh compound-free media. Cells were collected at specified time points, lysed in Cell Extraction Buffer (Invitrogen FNN0011) supplemented with Roche complete protease inhibitor tablets (Roche 11697498001) and phosphatase inhibitors (Roche 04 906 837 001) and lysates were sheared by passing through a 28.5 gauge syringe 10 times each. Protein concentrations were measured and 10 ug total protein lysate was loaded in each lane. C-kit phosphorylation was assayed by western blot with pTyr (4G10) antibody and total kit antibody from Cell Signaling Technology.
# Sorafenib and XVIII-11 were tested for cellular activity in a GIST882 cell line at 1 micromolar. The results are depicted in FIGS. 2a and 2b where it is shown that XVIII-11 maintained c-KIT enzyme inhibition in […] cells after “washout” for at least 8 hours. […] In order to understand whether there was a prolonged inhibition with the irreversible inhibitor the cells were washed free of compound. […]
structure (smiles),measurement,setting,value
"C=CC(=O)Nc1ccc(NC(=O)Nc2ccc(Oc3ccnc(C(=O)NC)c3)cc2)cc1C(F)(F)F [XVIII-11, 4-(4-(3-(4-Acrylamido-3-(trifluoromethyl)phenyl)ureido)phenoxy)-N-methylpicolinamide]",IC50,CKIT [1],31.1 nM
same,inhibition of cKIT autophosphorylation,CKIT [2],inhibited cKIT autophosphorylation
